Reference: PubChem BioAssay AID1671190 (National Center for Advancing Translational Sciences (NCATS), 2021)
The whole screen tested about 580,000 compounds, of which about 6,100 (1.1%) were called active. This list was built around the results that the source calls inconclusive (neither active nor inactive); the mix of calls is not that of the screen. Calls come from the whole dose curve; as a rule, active = well fitted inhibition curve with a large enough effect; inconclusive = small, poorly fitted or top-dose-only effect, or another doubt; inactive = no such curve, though single readings can be large or run the other way. Where the call is inconclusive, the potency comes from a doubtful curve fit.

Chains of the proteins cited; added tags and fusions are not shown. Lines headed by an entry give the natural chain unless they say otherwise; changes in a name come on top.
UniProt P18054: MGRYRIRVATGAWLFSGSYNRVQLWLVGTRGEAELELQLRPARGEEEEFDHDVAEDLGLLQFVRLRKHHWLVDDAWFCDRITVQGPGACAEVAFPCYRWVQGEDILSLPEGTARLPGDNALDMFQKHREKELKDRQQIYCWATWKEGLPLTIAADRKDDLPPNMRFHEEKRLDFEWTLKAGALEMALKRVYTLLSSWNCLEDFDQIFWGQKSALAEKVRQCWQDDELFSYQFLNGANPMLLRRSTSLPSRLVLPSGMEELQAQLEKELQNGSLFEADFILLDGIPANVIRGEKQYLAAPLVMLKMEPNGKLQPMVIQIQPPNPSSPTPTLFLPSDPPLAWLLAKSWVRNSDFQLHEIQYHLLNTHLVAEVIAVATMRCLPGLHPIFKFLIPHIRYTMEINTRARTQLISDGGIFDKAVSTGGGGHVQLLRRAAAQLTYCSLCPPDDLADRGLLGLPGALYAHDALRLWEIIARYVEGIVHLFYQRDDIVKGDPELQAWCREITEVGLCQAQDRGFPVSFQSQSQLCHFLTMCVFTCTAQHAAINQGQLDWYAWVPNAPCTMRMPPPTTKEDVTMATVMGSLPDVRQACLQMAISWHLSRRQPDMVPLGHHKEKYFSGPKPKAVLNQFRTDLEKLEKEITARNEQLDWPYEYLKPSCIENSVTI

What follows are compounds tested against Polyunsaturated fatty acid lipoxygenase ALOX12 (Homo sapiens) (UniProt P18054) (assay: Primary qHTS assay for inhibitors of human arachidonate 12S-lipoxygenase (ALOX12): Round 2). Conditions: purified 12hLO, xylenol orange hydroperoxide absorbance; activity change, negative = inhibition: at 108 µM (top of the series) unless noted.
How it was run: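 Purified human 12hLO at 150 nM in 25 mM Hepes, 0.01% Triton X-100, pH 7.0, preincubated 15 min at room temperature with compound. Reaction started with 40 uM arachidonic acid, 30 min at room temperature. Hydroperoxide measured by Fe-xylenol orange, 573/405 nm absorbance ratio.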
% is set by controls: 0 for no effect and ±100 for the full control effect; potency is the fitted concentration of half-maximal effect.

Compound | Potency | activity change, negative = inhibition
NC(=O)C(=O)N/N=C/c1c2ccccc2cc2ccccc12 | inconclusive: 89.1 µM [inhibitor, partial curve, poor fit] | –
O=C(CN1C(=O)S/C(=C\C=C\c2ccccc2)C1=O)Nc1ccccc1C(=O)O | inconclusive: 50.1 µM [inhibitor, partial curve, poor fit] | –
O=[N+]([O-])c1ccc(C(c2ccccc2)c2cccc3ccccc23)cc1 (stereo not given) | – | inactive: -0.923%
O=C(COC(=O)c1ccccc1O)NCCCc1ccccc1 | – | inactive: -17.2%
CCCC(=O)C1=C(N2CCCC2)CC(C)(C)C(C(=O)OC)C1=O (stereo not given) | – | inactive: 181%
CCc1ccccc1NC(=S)Nc1cc(OC)c(NC(=O)C(C)C)cc1OC | inconclusive: 79.4 µM [inhibitor, partial curve, poor fit] | –
Cc1ccc(-c2csc(C(C#N)=C3CCC(C)CC3)n2)cc1 (stereo not given) | inconclusive: 31.6 µM [inhibitor, partial curve, poor fit] | –
O=C(NC1CCCC1)C12CC3CC(C1)CC(c1ccccc1)(C3)C2 | inconclusive: 100 µM [inhibitor, single point] | –
CC(C)CNC(=O)c1csc2c1CCC(C)C2 (stereo not given) | inconclusive: 56.2 µM [inhibitor, partial curve, poor fit] | –
O=C(CC1COCCN1)N1CCC2(CCC(=O)N(CCc3ccncc3)C2)CC1 (stereo not given) | inconclusive: 15.8 µM [inhibitor, partial curve] | –
Cc1ccc(C)c(NC(=O)Cn2c(=O)n(-c3ccccc3C)c(=O)c3c2c2cc(C)ccc2n3C)c1 | – | inactive: -15%
Fc1ccc(OC2CN(CC3CC3)C2)cc1F | inconclusive: 158 µM [inhibitor, single point] | –
Cc1ccc2[nH]c(C(=O)NCc3ccccc3)cc2c1 | inconclusive: 14.1 µM [inhibitor, full curve, poor fit] | –
Cc1cccc(C(=O)Nc2cccc(OCc3cc(=O)n4cc(C)sc4n3)c2)c1 | – | inactive: -22.4%
Cc1ccc(C(C)C)c(OCC(=O)NCC2(N3CCOCC3)CCCCC2)c1 | inconclusive: 89.1 µM [inhibitor, partial curve, poor fit] | –
O=C(O)c1ccc(-c2ccc(CO)o2)cc1 | inconclusive: 50.1 µM [inhibitor, partial curve, poor fit] | –
Nn1c(SCC(=O)Nc2nccs2)nnc1-c1ccccn1 | inconclusive: 2 µM [inhibitor, full curve, poor fit] | –
Cc1ccc(S(=O)(=O)N2CCN(C3CCN(CCC(C)C)C3=O)CC2)cc1F (stereo not given) | – | inactive: 39%
c1ccc(Cn2c(CN3CCCC3)nc3ccccc32)cc1 | – | inactive: -15.6%
O=C1c2c(Br)c(Br)c(Br)c(Br)c2C(=O)N1c1ccccn1 | inconclusive: 7.94 µM [inhibitor, partial curve] | –

Quoted at random: 2 records from the list, in no set order.
Compound | Potency | activity change, negative = inhibition
CCc1ccccc1NC(=S)Nc1cc(OC)c(NC(=O)C(C)C)cc1OC | inconclusive: 79.4 µM [inhibitor, partial curve, poor fit] | –
Fc1ccc(OC2CN(CC3CC3)C2)cc1F | inconclusive: 158 µM [inhibitor, single point] | –
